Our source for the binding values is article PMC8605320.

Results are given in words; binding and its absence hold for the method and conditions named. Binding seen in cells or lysates may run through a third protein. These calls come from enrichment with a bait or labelling near it, and not all partners need be listed. Sequences can lack the tags named with a protein.

B1: TOMM40 (protein, UniProt O96008 1-361)
chain: MGNVLAASSPPAGPPPPPAPALVGLPPPPPSPPGFTLPPLGGSLGAGTSTSRSSERTPGAATASASGAAEDGACGCLPNPGTFEECHRKCKELFPIQMEGVKLTVNKGLSNHFQVNHTVALSTIGESNYHFGVTYVGTKQLSPTEAFPVLVGDMDNSGSLNAQVIHQLGPGLRSKMAIQTQQSKFVNWQVDGEYRGSDFTAAVTLGNPDVLVGSGILVAHYLQSITPCLALGGELVYHRRPGEEGTVMSLAGKYTLNNWLATVTLGQAGMHATYYHKASDQLQVGVEFEASTRMQDTSVSFGYQLDLPKANLLFKGSVDSNWIVGATLEKKLPPLPLTLALGAFLNHRKNKFQCGFGLTIG
B2: ORMDL3 (protein, UniProt Q8N138 1-153)
chain: MNVGTAHSEVNPNTRVMNSRGIWLSYVLAIGLLHIVLLSIPFVSVPVVWTLTNLIHNMGMYIFLHTVKGTPFETPDQGKARLLTHWEQMDYGVQFTASRKFLTITPIVLYFLTSFYTKYDQIHFVLNTVSLMSVLIPKLPQLHGVRIFGINKY
B3: ORMDL1 (protein, UniProt Q9P0S3 1-153)
chain: MNVGVAHSEVNPNTRVMNSRGMWLTYALGVGLLHIVLLSIPFFSVPVAWTLTNIIHNLGMYVFLHAVKGTPFETPDQGKARLLTHWEQLDYGVQFTSSRKFFTISPIILYFLASFYTKYDPTHFILNTASLLSVLIPKMPQLHGVRIFGINKY
B4: MFF (protein, UniProt Q9GZY8 1-342)
chain: MSKGTSSDTSLGRVSRAAFPSPTAAEMAEISRIQYEMEYTEGISQRMRVPEKLKVAPPNADLEQGFQEGVPNASVIMQVPERIVVAGNNEDVSFSRPADLDLIQSTPFKPLALKTPPRVLTLSERPLDFLDLERPPTTPQNEEIRAVGRLKRERSMSENAVRQNGQLVRNDSLWHRSDSAPRNKISRFQAPISAPEYTVTPSPQQARVCPPHMLPEDGANLSSARGILSLIQSSTRRAYQQILDVLDENRRPVLRGGSAAATSNPHHDNVRYGISNIDTTIEGTSDDLTVVDAASLRRQIIKLNRRLQLLEEENKERAKREMVMYSITVAFWLLNSWLWFRR
B5: ESYT1 (protein, UniProt Q9BSJ8 1-1104)
chain: MERSPGEGPSPSPMDQPSAPSDPTDQPPAAHAKPDPGSGGQPAGPGAAGEALAVLTSFGRRLLVLIPVYLAGAVGLSVGFVLFGLALYLGWRRVRDEKERSLRAARQLLDDEEQLTAKTLYMSHRELPAWVSFPDVEKAEWLNKIVAQVWPFLGQYMEKLLAETVAPAVRGSNPHLQTFTFTRVELGEKPLRIIGVKVHPGQRKEQILLDLNISYVGDVQIDVEVKKYFCKAGVKGMQLHGVLRVILEPLIGDLPFVGAVSMFFIRRPTLDINWTGMTNLLDIPGLSSLSDTMIMDSIAAFLVLPNRLLVPLVPDLQDVAQLRSPLPRGIIRIHLLAARGLSSKDKYVKGLIEGKSDPYALVRLGTQTFCSRVIDEELNPQWGETYEVMVHEVPGQEIEVEVFDKDPDKDDFLGRMKLDVGKVLQASVLDDWFPLQGGQGQVHLRLEWLSLLSDAEKLEQVLQWNWGVSSRPDPPSAAILVVYLDRAQDLPLKKGNKEPNPMVQLSIQDVTQESKAVYSTNCPVWEEAFRFFLQDPQSQELDVQVKDDSRALTLGALTLPLARLLTAPELILDQWFQLSSSGPNSRLYMKLVMRILYLDSSEICFPTVPGCPGAWDVDSENPQRGSSVDAPPRPCHTTPDSQFGTEHVLRIHVLEAQDLIAKDRFLGGLVKGKSDPYVKLKLAGRSFRSHVVREDLNPRWNEVFEVIVTSVPGQELEVEVFDKDLDKDDFLGRCKVRLTTVLNSGFLDEWLTLEDVPSGRLHLRLERLTPRPTAAELEEVLQVNSLIQTQKSAELAAALLSIYMERAEDLPLRKGTKHLSPYATLTVGDSSHKTKTISQTSAPVWDESASFLIRKPHTESLELQVRGEGTGVLGSLSLPLSELLVADQLCLDRWFTLSSGQGQVLLRAQLGILVSQHSGVEAHSHSYSHSSSSLSEEPELSGGPPHITSSAPELRQRLTHVDSPLEAPAGPLGQVKLTLWYYSEERKLVSIVHGCRSLRQNGRDPPDPYVSLLLLPDKNRGTKRRTSQKKRTLSPEFNERFEWELPLDEAQRRKLDVSVKSNSSFMSRERELLGKVQLDLAETDLSQGVARWYDLMDNKDKGSS
B6: ORMDL2 (protein, UniProt Q53FV1 1-153)
chain: MNVGVAHSEVNPNTRVMNSRGIWLAYIILVGLLHMVLLSIPFFSIPVVWTLTNVIHNLATYVFLHTVKGTPFETPDQGKARLLTHWEQMDYGLQFTSSRKFLSISPIVLYLLASFYTKYDAAHFLINTASLLSVLLPKLPQFHGVRVFGINKY
B7: GK (protein, UniProt P32189 1-559)
chain: MAASKKAVLGPLVGAVDQGTSSTRFLVFNSKTAELLSHHQVEIKQEFPREGWVEQDPKEILHSVYECIEKTCEKLGQLNIDISNIKAIGVSNQRETTVVWDKITGEPLYNAVVWLDLRTQSTVESLSKRIPGNNNFVKSKTGLPLSTYFSAVKLRWLLDNVRKVQKAVEEKRALFGTIDSWLIWSLTGGVNGGVHCTDVTNASRTMLFNIHSLEWDKQLCEFFGIPMEILPNVRSSSEIYGLMKISHSVKAGALEGVPISGCLGDQSAALVGQMCFQIGQAKNTYGTGCFLLCNTGHKCVFSDHGLLTTVAYKLGRDKPVYYALEGSVAIAGAVIRWLRDNLGIIKTSEEIEKLAKEVGTSYGCYFVPAFSGLYAPYWEPSARGIICGLTQFTNKCHIAFAALEAVCFQTREILDAMNRDCGIPLSHLQVDGGMTSNKILMQLQADILYIPVVKPSMPETTALGAAMAAGAAEGVGVWSLEPEDLSAVTMERFEPQINAEESEIRYSTWKKAVMKSMGWVTTQSPESGDPSIFCSLPLGFFIVSSMVMLIGARYISGIP

This experiment concerns the target T1, SPTLC2^FLAG (WT-SPTLC2 with C-terminal 3xFLAG), in Flp-In T-REx 293 SPTLC2-KO cells (human) (UniProt O15270).
T1 sequence: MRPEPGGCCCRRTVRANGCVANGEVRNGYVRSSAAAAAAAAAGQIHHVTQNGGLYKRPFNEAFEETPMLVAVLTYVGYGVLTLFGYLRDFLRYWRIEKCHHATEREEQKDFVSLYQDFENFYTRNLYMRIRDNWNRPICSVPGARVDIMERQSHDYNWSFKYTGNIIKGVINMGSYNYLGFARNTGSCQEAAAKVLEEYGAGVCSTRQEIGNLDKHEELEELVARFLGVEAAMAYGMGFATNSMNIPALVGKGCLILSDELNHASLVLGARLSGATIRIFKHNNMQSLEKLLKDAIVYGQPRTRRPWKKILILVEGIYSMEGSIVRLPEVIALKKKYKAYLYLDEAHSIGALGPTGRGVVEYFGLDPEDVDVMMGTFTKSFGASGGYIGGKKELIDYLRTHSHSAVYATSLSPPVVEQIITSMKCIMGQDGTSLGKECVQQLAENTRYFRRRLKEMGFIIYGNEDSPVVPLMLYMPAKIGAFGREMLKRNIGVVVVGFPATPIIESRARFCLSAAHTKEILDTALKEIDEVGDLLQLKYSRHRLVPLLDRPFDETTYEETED
In words: affinity purification with mass spectrometry; heavy membrane fractions of Flp-In T-REx 293 SPTLC2-KO cells with or without SPTLC2^FLAG, solubilised with digitonin (50 mM TRIS pH 7.4, 150 mM NaCl), anti-FLAG magnetic M2 beads 3 h, eluted with 100 mM glycine pH 2.5, mass spectrometry.
For B1, the binding result is recorded as “binds”. Take B2: the binding result is reported as “binds”. To B3 belongs “binds”.

Regarding B4, the binding entry is “binds”.

B5: the binding entry is listed as “binds”. With B6, the binding result was “binds”. To B7 belongs “binds”.
